Data published in patent US8999889B2, “Substituted ketonic isoxazoline compounds and derivatives for combating animal pests” (BASF SE, priority 2010, dated 2015).
Some entries share one result that the patent states for a list of compounds.

Assays:
Format in all cases: in vivo
[1] = system: Plutella xylostella; assay: Diamond back moth (Plutella xylostella), dipped Chinese cabbage leaves; settings: 300 ppm, mortality recorded 24, 72, and 120 hours after treatment
Protocol: If not otherwise specified the test solutions were prepared as follow:
The active compound was dissolved at the desired concentration in a mixture of 1:1 (vol:vol) distilled water:acteon. The test solution was prepared at the day of use and in general at concentrations of ppm (wt/vol).
B.1 Diamond Back Moth (Plutella xylostella)
Leaves of Chinese cabbage were dipped in test solution and air-dried. Treated leaves were placed in petri dished lined with moist filter paper. Mortality was recorded 24, 72, and 120 hours after treatment.

[2] = system: Heliothis virescens; assay: Tobacco budworm (Heliothis virescens) I, sprayed cotton plants; settings: Heliothis virescens larvae; 2500 ppm; 4 days after treatment
Protocol: B.6 Tobacco Budworm (Heliothis virescens) I
(§1) The active compounds were formulated in cyclohexanone as a 10,000 ppm solution supplied in tubes. The tubes were inserted into an automated electrostatic sprayer equipped with an atomizing nozzle and they served as stock solutions for which lower dilutions were made in 50% acetone:50% water (v/v). A nonionic surfactant (Kinetic®) was included in the solution at a volume of 0.01% (v/v).
Cotton plants were grown 2 plants to a pot and selected for treatment at the cotyledon stage. Test solutions were sprayed onto the foliage by an automated electrostatic plant sprayer equipped with an atomizing spray nozzle. The plants were dried in the sprayer fume hood and then removed from the sprayer. Each pot was placed into perforated plastic bags with a zip closure. About 10 to 11 budworm larvae were placed into the bag and the bags zipped closed. Test plants were maintained in a growth room at about 25° C. and about 20-40% relative humidity for 4 days, avoiding direct exposure to fluorescent light (24 hour photoperiod) to prevent trapping of heat inside the bags. Mortality and reduced feeding were assessed 4 days after treatment, compared to untreated control plants.

[3] = system: Megoura viciae; assay: Vetch aphid (Megoura viciae), broad bean leaf disks in microtiter plates; settings: Megoura viciae adults; 2500 ppm; 5 days
Protocol: B.5 Vetch aphid (Megoura viciae)
For evaluating control of vetch aphid (Megoura viciae) through contact or systemic means the test unit consisted of 24-well-microtiter plates containing broad bean leaf disks.
The compounds were formulated using a solution containing 75% v/v water and 25% v/v DMSO. Different concentrations of formulated compounds were sprayed onto the leaf disks at 2.5 μl, using a custom built micro atomizer, at two replications. After application, the leaf disks were air-dried and 5-8 adult aphids placed on the leaf disks inside the microtiter plate wells. The aphids were then allowed to suck on the treated leaf disks and incubated at about 23±1° C. and about 50±5% relative humidity for 5 days. Aphid mortality and fecundity was then visually assessed.

[4] = system: Spodoptera eridania; assay: Southern armyworm (Spodoptera eridania), sprayed lima bean plants; settings: Spodoptera eridania larvae; 300 ppm; 4 days after treatment
Protocol: B.4 Southern Armyworm (Spodoptera eridania)
as §1
Lima bean plants (variety Sieva) were grown 2 plants to a pot and selected for treatment at the 1st true leaf stage. Test solutions were sprayed onto the foliage by an automated electrostatic plant sprayer equipped with an atomizing spray nozzle. The plants were dried in the sprayer fume hood and then removed from the sprayer. Each pot was placed into perforated plastic bags with a zip closure. About 10 to 11 armyworm larvae were placed into the bag and the bags zipped closed. Test plants were maintained in a growth room at about 25° C. and about 20-40% relative humidity for 4 days, avoiding direct exposure to fluorescent light (24 hour photoperiod) to prevent trapping of heat inside the bags. Mortality and reduced feeding were assessed 4 days after treatment, compared to untreated control plants.

[5] = system: Bemisia argentifolii; assay: Silverleaf whitefly (Bemisia argentifolii), sprayed cotton plants; settings: Bemisia argentifolii adults; 300 ppm; 3 days after treatment
Excerpt: B.3 Silverleaf Whitefly (Bemisia argentifolii)
as §1
Cotton plants at the cotyledon stage (one plant per pot) were sprayed by an automated electrostatic plant sprayer equipped with an atomizing spray nozzle. The plants were dried in the sprayer fume hood and then removed from the sprayer. Each pot was placed into a plastic cup and about 10 to 12 whitefly adults (approximately 3-5 days old) were introduced. The insects were collected using an aspirator and a nontoxic Tygon® tubing connected to a barrier pipette tip. The tip, containing the collected insects, was then gently inserted into the soil containing the treated plant, allowing insects to crawl out of the tip to reach the foliage for feeding. Cups were covered with a reusable screened lid. Test plants were maintained in a growth room at about 25° C. and about 20-40% relative humidity for 3 days, avoiding direct exposure to fluorescent light (24 hour photoperiod) to prevent trapping of heat inside the cup. Mortality was assessed 3 days after treatment, compared to untreated control plants.

[6] = system: Ceratitis capitata; assay: Mediterranean fruitfly (Ceratitis capitata), microtiter plate with insect diet and eggs; settings: 2500 ppm, egg and larval mortality after 5 days
Protocol: B.2 Mediterranean Fruitfly (Ceratitis capitata)
For evaluating control of Mediterranean fruitfly (Ceratitis capitata) the test unit consisted of microtiter plates containing an insect diet and 50-80 C. capitata eggs.
The compounds were formulated using a solution containing 75% v/v water and 25% v/v DMSO. Different concentrations of formulated compounds were sprayed onto the insect diet at 5 μl, using a custom built micro atomizer, at two replications. After application, microtiter plates were incubated at about 28±1° C. and about 80±5% relative humidity for 5 days. Egg and larval mortality was then visually assessed.

[7] = system: Myzus persicae; assay: Green peach aphid (Myzus persicae), artificial diet under membrane, systemic; settings: Myzus persicae adults; 2500 ppm; 3 days
Excerpt: B.8 Green Peach Aphid (Myzus Persicae)
For evaluating control of green peach aphid (Myzus persicae) through systemic means the test unit consisted of 96-well-microtiter plates containing liquid artificial diet under an artificial membrane.
The compounds were formulated using a solution containing 75% v/v water and 25% v/v DMSO. Different concentrations of formulated compounds were pipetted into the aphid diet, using a custom built pipetter, at two replications.
After application, 5-8 adult aphids were placed on the artificial membrane inside the microtiter plate wells. The aphids were then allowed to suck on the treated aphid diet and incubated at about 23±1° C. and about 50±5% relative humidity for 3 days. Aphid mortality and fecundity was then visually assessed.

[8] = system: Anthonomus grandis; assay: Boll weevil (Anthonomus grandis), microtiter plate with insect diet and eggs; settings: 2500 ppm, egg and larval mortality after 5 days
Protocol: B.7 Boll Weevil (Anthonomus grandis)
For evaluating control of boll weevil (Anthonomus grandis) the test unit consisted of 24-well-microtiter plates containing an insect diet and 20-30 A. grandis eggs.
The compounds were formulated using a solution containing 75% v/v water and 25% v/v DMSO. Different concentrations of formulated compounds were sprayed onto the insect diet at 20 μl, using a custom built micro atomizer, at two replications.
After application, microtiter plates were incubated at about 23±1° C. and about 50±5% relative humidity for 5 days. Egg and larval mortality was then visually assessed.

Measured: mortality in comparison with untreated controls

C=CCNC(=O)CCC(=O)c1ccc(C2=NOC(c3cc(Cl)cc(Cl)c3)(C(F)(F)F)C2)cc1C (stereo not shown) [Compound 1-23]
at least 75%: all assays above

Cc1cc(C2=NOC(c3cc(Cl)cc(Cl)c3)(C(F)(F)F)C2)ccc1C(=O)CCC(=O)NCC(F)(F)F (stereo not shown) [Compound 1-53]
at least 75%: all assays above

CCN(CC)C(=O)CCC(=O)c1ccc(C2=NOC(c3cc(Cl)cc(Cl)c3)(C(F)(F)F)C2)cc1C (stereo not shown) [Compound 1-46]
at least 75%: all assays above

CCN(C)C(=O)CCCC(=O)c1ccc(C2=NOC(c3cc(Cl)cc(Cl)c3)(C(F)(F)F)C2)cc1C (stereo not shown) [Compound 1-40]
at least 75%: all assays above

Cc1cc(C2=NOC(c3cc(Cl)cc(Cl)c3)(C(F)(F)F)C2)ccc1C(=O)CCCC(=O)N(C)C (stereo not shown) [Compound 1-51]
at least 75%: all assays above
